# Results taken from patent US7423042B2, “Compounds” (Glaxo Group Limited, priority 2005, dated 2008).
# Chains of the proteins cited; added tags and fusions are not shown.
# UniProt Q16539, whole entry: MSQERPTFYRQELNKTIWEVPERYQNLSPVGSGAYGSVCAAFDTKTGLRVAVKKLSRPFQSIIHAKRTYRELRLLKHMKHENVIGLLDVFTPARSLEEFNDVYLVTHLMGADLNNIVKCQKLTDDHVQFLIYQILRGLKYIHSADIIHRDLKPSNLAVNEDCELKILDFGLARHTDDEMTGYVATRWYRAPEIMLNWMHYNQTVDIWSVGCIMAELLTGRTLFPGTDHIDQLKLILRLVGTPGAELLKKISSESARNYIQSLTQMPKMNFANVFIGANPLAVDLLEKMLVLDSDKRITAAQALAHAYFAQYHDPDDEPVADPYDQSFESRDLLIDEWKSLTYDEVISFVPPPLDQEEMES
# Some results were stated once for a whole list of compounds, not compound by compound. For part of these data: At least one structure is not confirmed: it was looked up by name or label, or the drawing left a doubt.
# What was measured:
# [1] = biological target: PDE4; assay: PDE4 IC50 ratio (high affinity rolipram binding form / low affinity catalytic form); format: biochemical; conditions: 1 nM [3H]R-rolipram binding vs catalytic activity with 1 μM [3H]-cAMP
# [2] = biological target: T1, Recombinant human p38α (Homo sapiens, UniProt Q16539); assay: Fluorescence anisotropy kinase binding assay (standard or low volume); set-up: key: active: pIC50 of greater than 4.6 up to a pIC50 of greater than 9.0; conditions: 12 nM p38α, 5 nM fluorescent ligand; either assay format
# T1 construct: GST; made in house
Compound,IC50 ratio (IC50 for PDE4 form binding rolipram with high affinity divided by IC50 for form binding rolipram with low affinity) [1],"pIC50, fluorescence anisotropy kinase binding [2]"
COC(=O)C1CC(C#N)(c2ccc(OC(F)F)c(OCC3CC3)c2)CCC1=O (stereo not drawn) [2-carbomethoxy-4-cyano-4-(3-cyclopropylmethoxy-4-difluoromethoxyphenyl)cyclohexan-1-one],≥ 0.1,–
CNC(=NC#N)NCCNc1nc(-c2ccc(F)cc2C)c2ccc(=O)n(-c3c(F)cccc3F)c2n1 [Example 11],–,active
N#CC1(c2ccc(OC(F)F)c(OCC3CC3)c2)CCC(O)CC1 (stereo not drawn) [cis-[4-cyano-4-(3-cyclopropylmethoxy-4-difluoromethoxyphenyl)cyclohexan-1-ol]],≥ 0.1,–
"Cc1cc(F)ccc1-c1nc(NCCNC(N)=NC#N)nc2c1ccc(=O)n2-c1c(F)cccc1F [Example 10, N-cyano-N′-(2-{[8-(2,6-difluorophenyl)-4-(4-fluoro-2-methylphenyl)-7-oxo-7,8-dihydropyrido [2,3-d]pyrimidin-2-yl]amino}ethyl)guanidine]",–,active
COc1ccc([C@]2(C#N)CC[C@@H](C(=O)O)CC2)cc1OC1CCCC1 [cis 4-cyano-4-(3-cyclopentyloxy-4-methoxyphenyl)cyclohexan-1-carboxylic acid],≥ 0.1,–
CCNC(=NC#N)NCCNc1nc(-c2ccc(F)cc2C)c2ccc(=O)n(-c3c(F)cccc3F)c2n1 [Example 12],–,active
